Laboratory results: the supplement of paper PMC10849652
This is one part of the list.

By UniProt entry, the sequences of proteins in these tests, tags left out. Where a name states a change or a piece, a line headed by the entry shows the natural chain unless it says otherwise.
UniProt P78364: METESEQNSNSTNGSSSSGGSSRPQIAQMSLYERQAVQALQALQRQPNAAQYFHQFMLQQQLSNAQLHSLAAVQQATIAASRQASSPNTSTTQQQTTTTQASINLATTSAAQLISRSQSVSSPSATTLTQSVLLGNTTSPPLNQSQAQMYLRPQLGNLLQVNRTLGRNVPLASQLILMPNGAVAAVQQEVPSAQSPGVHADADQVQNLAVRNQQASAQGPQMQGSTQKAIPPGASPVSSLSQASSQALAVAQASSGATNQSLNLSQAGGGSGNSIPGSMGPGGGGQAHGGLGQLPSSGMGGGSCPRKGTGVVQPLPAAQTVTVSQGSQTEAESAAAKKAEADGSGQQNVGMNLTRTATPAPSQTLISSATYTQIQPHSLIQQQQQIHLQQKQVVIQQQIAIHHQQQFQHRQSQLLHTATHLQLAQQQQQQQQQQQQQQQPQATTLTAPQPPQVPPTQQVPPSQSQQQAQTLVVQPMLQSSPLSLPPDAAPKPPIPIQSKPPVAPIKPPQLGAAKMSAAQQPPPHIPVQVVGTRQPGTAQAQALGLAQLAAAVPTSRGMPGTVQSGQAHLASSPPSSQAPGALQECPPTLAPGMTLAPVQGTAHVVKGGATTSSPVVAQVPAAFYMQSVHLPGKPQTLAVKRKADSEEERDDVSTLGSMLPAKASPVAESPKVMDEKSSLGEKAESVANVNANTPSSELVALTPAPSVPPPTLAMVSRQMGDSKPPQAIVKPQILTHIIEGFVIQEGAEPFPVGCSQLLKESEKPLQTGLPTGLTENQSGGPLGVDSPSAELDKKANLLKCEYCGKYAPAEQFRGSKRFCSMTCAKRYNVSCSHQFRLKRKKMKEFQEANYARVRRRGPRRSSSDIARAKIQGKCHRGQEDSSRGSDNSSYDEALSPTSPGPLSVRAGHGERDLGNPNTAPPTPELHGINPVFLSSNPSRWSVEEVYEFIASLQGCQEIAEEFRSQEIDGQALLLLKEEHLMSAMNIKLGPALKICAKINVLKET
UniProt Q9P1W9: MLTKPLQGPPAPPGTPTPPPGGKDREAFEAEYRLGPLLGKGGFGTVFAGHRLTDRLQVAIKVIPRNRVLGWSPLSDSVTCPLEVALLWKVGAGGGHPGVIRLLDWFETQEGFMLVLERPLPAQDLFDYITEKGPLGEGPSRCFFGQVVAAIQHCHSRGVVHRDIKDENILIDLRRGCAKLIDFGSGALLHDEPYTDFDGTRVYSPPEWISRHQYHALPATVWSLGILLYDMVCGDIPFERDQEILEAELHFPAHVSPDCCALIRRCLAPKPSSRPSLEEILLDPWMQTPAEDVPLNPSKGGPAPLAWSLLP
UniProt P16885: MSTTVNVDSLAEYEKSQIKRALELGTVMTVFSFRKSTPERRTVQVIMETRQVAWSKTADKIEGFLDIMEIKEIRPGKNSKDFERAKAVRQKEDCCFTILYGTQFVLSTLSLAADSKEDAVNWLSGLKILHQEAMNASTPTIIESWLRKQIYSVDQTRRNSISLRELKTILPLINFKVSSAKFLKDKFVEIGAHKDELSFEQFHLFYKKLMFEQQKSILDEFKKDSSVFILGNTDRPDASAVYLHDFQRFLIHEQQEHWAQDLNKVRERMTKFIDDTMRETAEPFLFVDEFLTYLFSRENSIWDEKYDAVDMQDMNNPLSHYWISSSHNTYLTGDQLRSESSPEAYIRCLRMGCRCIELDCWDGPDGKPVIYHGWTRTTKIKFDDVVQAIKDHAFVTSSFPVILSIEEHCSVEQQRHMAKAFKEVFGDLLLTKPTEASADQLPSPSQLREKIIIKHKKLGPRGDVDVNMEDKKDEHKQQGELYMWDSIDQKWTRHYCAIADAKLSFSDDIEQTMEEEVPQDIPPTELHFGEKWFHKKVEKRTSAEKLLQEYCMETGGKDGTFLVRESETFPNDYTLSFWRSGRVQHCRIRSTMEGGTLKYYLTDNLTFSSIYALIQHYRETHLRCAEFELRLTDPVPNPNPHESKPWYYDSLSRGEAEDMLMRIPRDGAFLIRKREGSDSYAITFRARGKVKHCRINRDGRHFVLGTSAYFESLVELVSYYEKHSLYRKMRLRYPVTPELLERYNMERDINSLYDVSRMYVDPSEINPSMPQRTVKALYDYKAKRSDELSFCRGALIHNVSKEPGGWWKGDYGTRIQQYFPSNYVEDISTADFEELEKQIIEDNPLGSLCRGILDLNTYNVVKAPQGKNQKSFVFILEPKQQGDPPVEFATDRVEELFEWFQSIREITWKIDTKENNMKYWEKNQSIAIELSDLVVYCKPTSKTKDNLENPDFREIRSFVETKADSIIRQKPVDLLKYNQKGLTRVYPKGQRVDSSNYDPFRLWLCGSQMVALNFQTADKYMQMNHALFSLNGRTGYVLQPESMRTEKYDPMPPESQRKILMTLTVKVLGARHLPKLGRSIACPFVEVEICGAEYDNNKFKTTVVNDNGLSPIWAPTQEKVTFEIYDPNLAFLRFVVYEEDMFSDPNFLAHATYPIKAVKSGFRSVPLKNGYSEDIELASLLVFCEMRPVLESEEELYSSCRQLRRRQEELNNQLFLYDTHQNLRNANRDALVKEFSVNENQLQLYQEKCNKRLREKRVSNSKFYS
UniProt P11309, whole entry, looked up: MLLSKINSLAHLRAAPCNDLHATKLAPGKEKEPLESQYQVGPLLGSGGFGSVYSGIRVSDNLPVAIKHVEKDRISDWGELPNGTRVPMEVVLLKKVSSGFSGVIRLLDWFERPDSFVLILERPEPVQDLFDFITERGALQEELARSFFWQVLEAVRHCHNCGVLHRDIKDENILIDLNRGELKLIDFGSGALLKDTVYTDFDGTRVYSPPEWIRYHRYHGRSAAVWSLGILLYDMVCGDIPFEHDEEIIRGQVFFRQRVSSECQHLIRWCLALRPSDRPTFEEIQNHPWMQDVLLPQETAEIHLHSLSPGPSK
UniProt O00329: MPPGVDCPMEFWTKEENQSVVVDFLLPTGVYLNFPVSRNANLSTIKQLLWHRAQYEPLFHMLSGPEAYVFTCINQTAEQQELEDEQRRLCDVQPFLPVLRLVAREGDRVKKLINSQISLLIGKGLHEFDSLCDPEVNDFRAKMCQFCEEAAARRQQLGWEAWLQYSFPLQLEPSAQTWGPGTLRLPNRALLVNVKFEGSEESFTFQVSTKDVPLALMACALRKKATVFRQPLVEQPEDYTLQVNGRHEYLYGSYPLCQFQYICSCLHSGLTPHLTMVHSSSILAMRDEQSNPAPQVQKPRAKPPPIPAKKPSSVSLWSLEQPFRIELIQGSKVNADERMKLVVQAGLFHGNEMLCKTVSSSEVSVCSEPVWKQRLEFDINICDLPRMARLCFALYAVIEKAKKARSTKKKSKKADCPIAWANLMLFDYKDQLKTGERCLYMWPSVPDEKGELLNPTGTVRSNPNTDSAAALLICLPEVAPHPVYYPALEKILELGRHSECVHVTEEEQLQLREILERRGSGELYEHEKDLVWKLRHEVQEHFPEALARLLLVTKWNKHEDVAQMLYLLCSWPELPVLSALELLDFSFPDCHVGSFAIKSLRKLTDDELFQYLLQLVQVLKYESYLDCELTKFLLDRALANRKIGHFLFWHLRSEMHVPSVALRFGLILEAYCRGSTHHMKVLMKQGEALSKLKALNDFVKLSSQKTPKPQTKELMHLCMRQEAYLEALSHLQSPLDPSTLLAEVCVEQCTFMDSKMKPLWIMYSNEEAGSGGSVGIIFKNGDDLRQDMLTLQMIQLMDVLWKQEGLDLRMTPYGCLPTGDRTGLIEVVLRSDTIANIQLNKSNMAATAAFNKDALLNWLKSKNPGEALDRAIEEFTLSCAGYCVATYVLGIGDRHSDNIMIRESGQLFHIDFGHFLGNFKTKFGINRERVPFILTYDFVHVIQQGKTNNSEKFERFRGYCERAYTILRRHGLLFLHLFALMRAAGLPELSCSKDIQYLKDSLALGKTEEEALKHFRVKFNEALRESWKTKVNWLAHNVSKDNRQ
UniProt Q99453, whole entry, looked up: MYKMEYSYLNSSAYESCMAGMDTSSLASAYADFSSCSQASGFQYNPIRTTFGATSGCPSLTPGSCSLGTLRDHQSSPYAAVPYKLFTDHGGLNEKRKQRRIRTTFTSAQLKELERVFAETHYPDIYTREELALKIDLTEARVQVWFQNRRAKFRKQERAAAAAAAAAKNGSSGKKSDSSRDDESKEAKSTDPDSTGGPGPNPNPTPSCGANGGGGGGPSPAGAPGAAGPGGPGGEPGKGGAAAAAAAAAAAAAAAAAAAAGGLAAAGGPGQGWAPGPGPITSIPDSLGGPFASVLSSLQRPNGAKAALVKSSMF
UniProt Q6P5Z2: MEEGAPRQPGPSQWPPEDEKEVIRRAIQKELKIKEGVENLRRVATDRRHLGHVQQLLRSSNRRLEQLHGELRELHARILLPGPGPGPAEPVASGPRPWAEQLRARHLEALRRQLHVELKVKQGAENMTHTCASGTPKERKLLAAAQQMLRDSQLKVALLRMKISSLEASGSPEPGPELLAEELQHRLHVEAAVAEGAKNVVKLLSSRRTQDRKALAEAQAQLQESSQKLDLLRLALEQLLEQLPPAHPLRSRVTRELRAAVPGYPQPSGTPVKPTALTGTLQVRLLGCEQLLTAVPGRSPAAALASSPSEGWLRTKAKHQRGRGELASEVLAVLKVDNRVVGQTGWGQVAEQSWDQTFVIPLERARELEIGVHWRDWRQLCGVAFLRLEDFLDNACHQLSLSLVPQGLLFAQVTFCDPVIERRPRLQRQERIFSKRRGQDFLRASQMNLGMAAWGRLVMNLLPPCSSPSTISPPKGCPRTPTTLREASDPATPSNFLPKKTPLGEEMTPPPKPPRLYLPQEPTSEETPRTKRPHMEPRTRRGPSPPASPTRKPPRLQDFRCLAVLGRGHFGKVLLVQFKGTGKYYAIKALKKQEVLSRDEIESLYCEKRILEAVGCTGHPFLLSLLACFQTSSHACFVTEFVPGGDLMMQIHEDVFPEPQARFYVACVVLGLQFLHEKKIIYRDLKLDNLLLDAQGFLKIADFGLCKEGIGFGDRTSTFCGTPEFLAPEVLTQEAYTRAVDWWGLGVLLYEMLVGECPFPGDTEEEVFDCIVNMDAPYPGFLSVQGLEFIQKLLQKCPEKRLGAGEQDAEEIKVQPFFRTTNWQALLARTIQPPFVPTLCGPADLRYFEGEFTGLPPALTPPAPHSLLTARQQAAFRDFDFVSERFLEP
UniProt Q9HB20: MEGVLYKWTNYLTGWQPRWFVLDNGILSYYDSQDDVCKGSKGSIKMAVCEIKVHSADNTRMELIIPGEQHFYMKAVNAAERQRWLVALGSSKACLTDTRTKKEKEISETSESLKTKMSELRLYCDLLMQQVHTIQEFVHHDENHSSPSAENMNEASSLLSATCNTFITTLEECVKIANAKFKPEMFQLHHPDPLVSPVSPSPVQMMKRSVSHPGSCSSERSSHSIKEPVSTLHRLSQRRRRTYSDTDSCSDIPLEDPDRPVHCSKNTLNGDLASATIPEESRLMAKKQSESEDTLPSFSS
UniProt Q9HB19: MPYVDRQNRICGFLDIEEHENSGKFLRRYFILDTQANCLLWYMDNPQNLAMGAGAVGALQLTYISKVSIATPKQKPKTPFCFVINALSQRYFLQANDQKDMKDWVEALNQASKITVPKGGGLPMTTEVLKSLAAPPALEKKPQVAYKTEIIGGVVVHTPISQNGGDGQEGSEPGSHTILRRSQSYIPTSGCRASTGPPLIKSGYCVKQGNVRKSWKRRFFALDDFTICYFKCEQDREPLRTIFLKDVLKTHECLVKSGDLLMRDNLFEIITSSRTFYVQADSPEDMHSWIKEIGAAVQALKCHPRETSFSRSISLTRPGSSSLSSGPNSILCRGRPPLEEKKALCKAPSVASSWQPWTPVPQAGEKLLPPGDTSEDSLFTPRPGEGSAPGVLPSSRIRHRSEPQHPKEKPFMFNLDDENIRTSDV
UniProt O75925, whole entry, looked up: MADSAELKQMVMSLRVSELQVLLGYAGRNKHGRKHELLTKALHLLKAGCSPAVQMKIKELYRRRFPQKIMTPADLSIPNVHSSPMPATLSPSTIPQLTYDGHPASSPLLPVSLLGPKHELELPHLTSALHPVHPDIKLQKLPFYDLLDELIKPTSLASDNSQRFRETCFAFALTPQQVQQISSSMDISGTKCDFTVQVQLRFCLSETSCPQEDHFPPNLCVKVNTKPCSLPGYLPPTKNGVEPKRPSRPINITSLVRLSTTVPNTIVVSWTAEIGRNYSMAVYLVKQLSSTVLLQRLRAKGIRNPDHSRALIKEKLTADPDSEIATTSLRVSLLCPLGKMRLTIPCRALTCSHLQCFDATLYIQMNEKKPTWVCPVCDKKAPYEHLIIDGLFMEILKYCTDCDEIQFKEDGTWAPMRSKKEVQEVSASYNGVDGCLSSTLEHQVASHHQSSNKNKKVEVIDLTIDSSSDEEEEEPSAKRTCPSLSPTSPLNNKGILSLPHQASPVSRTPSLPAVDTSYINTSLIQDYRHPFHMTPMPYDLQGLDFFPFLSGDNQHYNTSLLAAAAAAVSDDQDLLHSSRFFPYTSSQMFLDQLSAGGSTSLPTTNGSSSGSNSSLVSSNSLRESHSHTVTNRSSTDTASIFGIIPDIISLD

Key:
Test in all cases: log2 fold change, soluble protein after heating vs DMSO (PISA); higher = thermal stabilisation; K562 lysate, 10 uM; active = over 0.2 and 3.5 SD of the protein, either way, in both replicates (recomputed)
nilotinib = compound: Cc1cn(-c2cc(NC(=O)c3ccc(C)c(Nc4nccc(-c5cccnc5)n4)c3)cc(C(F)(F)F)c2)cn1 [nilotinib]
Outline: (§1)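 Soluble protein was defined as the supernatant remaining after 21,000xg for 90 min, following pooling of heated aliquots and adjustment to 0.5% NP-40 at 4°C. Before that, crude K562 extract at 1 mg/mL protein in PBS pH 7.4 with 1 mM MgCl2 was treated with 10 μM compound for 30 min and heated for 3 min across 48°C-58°C. Quantification used TMTpro 16plex LC-MS/MS with channel sums equalised, and values are log-two fold changes in thermal stability relative to solvent controls from duplicates.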

[1] = compound: Cc1nc(Nc2n[nH]c3c2CN(C(=O)N[C@H](CN(C)C)c2ccccc2)C3(C)C)c2sccc2n1
Outline: as §1

dasatinib = compound: Cc1nc(Nc2ncc(C(=O)Nc3c(C)cccc3Cl)s2)cc(N2CCN(CCO)CC2)n1 [dasatinib]
Outline: as §1

[2] = compound: Cc1ncc(-c2ccnc(Nc3ccc(S(C)(=O)=O)cc3)n2)n1C(C)C
Outline: as §1

[3] = compound: Cn1cc(-c2ccc3c(c2)CCN3C(=O)Cc2cccc(C(F)(F)F)c2)c2c(N)ncnc21
Outline: as §1

quisinostat = compound: Cn1cc(CNCC2CCN(c3ncc(C(=O)NO)cn3)CC2)c2ccccc21 [quisinostat]
Outline: as §1

tipifarnib = compound: Cn1cncc1[C@@](N)(c1ccc(Cl)cc1)c1ccc2c(c1)c(-c1cccc(Cl)c1)cc(=O)n2C [tipifarnib]
Outline: as §1

[4] = compound: NC(=O)Nc1cc(-c2cccc(F)c2)sc1C(=O)N[C@H]1CCCNC1
Outline: as §1

[5] = compound: NC(=O)c1cnc(N[C@@H]2CCCC[C@@H]2N)nc1Nc1cccc(-n2nccn2)c1
Outline: as §1

[6] = compound: NC1(c2ccc(-c3nc4ccn5c(=O)[nH]nc5c4cc3-c3ccccc3)cc2)CCC1
Outline: as §1

[7] = compound: NCC(=O)Nc1ccc(-n2nc(C(F)(F)F)cc2-c2ccc3c(ccc4ccccc43)c2)cc1
Outline: as §1

vorinostat = compound: O=C(CCCCCCC(=O)Nc1ccccc1)NO [vorinostat]
Outline: as §1

silmitasertib = compound: O=C(O)c1ccc2c(c1)nc(Nc1cccc(Cl)c1)c1ccncc12 [silmitasertib]
Outline: as §1

[8] = compound: O=C1NC(=O)C(c2cnc3ccccn23)=C1c1cn2c3c(cc(F)cc13)CN(C(=O)N1CCCCC1)CC2
Outline: as §1

entospletinib = compound: c1cn2cc(-c3ccc4cn[nH]c4c3)nc(Nc3ccc(N4CCOCC4)cc3)c2n1 [entospletinib]
Outline: as §1

Measured: log2 fold change

PGM2L1 (UniProt Q6PCE3)
inactive: nilotinib -0.023 | [1] -0.009 | dasatinib 0.05 | [2] 0.006 | [3] 0.003 | quisinostat -0.025 | tipifarnib 0.034 | [4] 0.001 | [5] 0.02 | [6] 0.002 | [7] 0.056 | vorinostat 0.097 | silmitasertib 0 | [8] -0.035 | entospletinib 0

PLEKHA8 (UniProt Q96JA3)
inactive: nilotinib -0.084 | [1] 0.047 | dasatinib -0.029 | [2] -0.13 | [3] -0.035 | tipifarnib 0.196 | entospletinib -0.187

PITPNM1 (UniProt O00562)
inactive: nilotinib -0.053 | [1] -0.038 | [2] 0.014 | quisinostat -0.368 | tipifarnib -0.073 | [4] 0.038 | [8] -0.062

PIK3CA (UniProt P42336)
inactive: nilotinib 0.082 | [1] 0.011 | [2] 0.02 | [3] -0.021 | quisinostat 0.038 | tipifarnib -0.034 | [4] 0.004 | [5] 0.073 | [6] 0.009 | [7] -0.024 | vorinostat -0.061 | silmitasertib 0.074 | [8] -0.004 | entospletinib -0.046

PHC1 (UniProt P78364)
inactive: nilotinib 0.054 | [1] 0.023 | dasatinib 0.087 | [2] -0.024 | [3] -0.049 | quisinostat -0.003 | tipifarnib -0.02 | [4] 0.003 | [7] 0.042 | [8] 0.151 | entospletinib 0.073

PIM2 (UniProt Q9P1W9)
inactive: nilotinib 0.084 | [1] 0.15 | dasatinib 0.201 | [2] 0.077 | [3] -0.267 | tipifarnib 0.174

PIGT, A0A1W2PP13
inactive: nilotinib -0.238 | [1] 0.099 | [2] 0.089 | tipifarnib -0.012 | [5] 0.032

PLAU (UniProt P00749)
inactive: nilotinib -0.049 | [1] -0.036 | dasatinib 0.298 | [2] 0.091 | [3] -0.17 | tipifarnib -0.113 | [5] -0.21 | [6] 0.009 | vorinostat 0.235 | silmitasertib -0.052 | entospletinib 0.072

PHLPP1 (UniProt O60346)
inactive: nilotinib 0.143 | [1] 0.131 | dasatinib -0.043 | [2] -0.287 | [3] -0.129 | quisinostat -0.118 | tipifarnib -0.162 | [4] 0.005 | [6] 0.018 | [7] -0.099 | vorinostat -0.082 | silmitasertib -0.067 | [8] -0.073

PLCG2 (UniProt P16885)
inactive: nilotinib -0.003 | [1] -0.035 | [2] 0.004 | quisinostat -0.064 | tipifarnib 0.05 | [4] -0.013 | [5] 0.041 | [6] 0.033 | [7] 0.2 | vorinostat -0.044 | silmitasertib 0.011 | [8] -0.053 | entospletinib -0.038

PHF19 (UniProt Q5T6S3)
inactive: nilotinib 0.001 | [1] 0.137 | [2] 0.039 | quisinostat 0.077 | tipifarnib -0.209 | [4] -0.062 | [6] -0.1 | vorinostat -0.187 | silmitasertib 0.037 | [8] -0.082

PIM1 isoform 2 (UniProt P11309)
inactive: nilotinib 0.059 | [1] -0.025 | dasatinib -0.033 | [2] 0.063 | [3] 0.112 | quisinostat -0.085 | tipifarnib 0.061 | [4] 0.038 | [6] -0.146 | [7] 0.098 | vorinostat -0.188 | silmitasertib 0.212 | [8] 0.019 | entospletinib 0.008

PIAS2 (UniProt O75928)
active: [7] 0.469 | vorinostat -0.334
inactive: nilotinib -0.019 | [1] -0.005 | dasatinib -0.097 | [2] 0.068 | [3] -0.026 | quisinostat 0.061 | tipifarnib -0.086 | [4] 0.004 | [6] 0.025 | silmitasertib -0.091 | [8] -0.054 | entospletinib 0.01

PIK3CD (UniProt O00329)
inactive: nilotinib 0.059 | [1] 0.006 | [2] 0.122 | [3] 0.151 | quisinostat -0.091 | tipifarnib -0.053 | [4] 0.02 | [5] 0.001 | [6] 0.127 | [7] -0.059 | silmitasertib 0.223 | [8] -0.004
active: vorinostat -0.516

PHOX2B (UniProt Q99453)
inactive: nilotinib -0.142 | [1] 0.039 | dasatinib -0.605 | [2] -0.255 | [3] 0.224 | quisinostat -0.4 | tipifarnib -0.16 | [4] -0.031 | [7] 0.045 | [8] -0.131 | entospletinib -0.058

PKN3 (UniProt Q6P5Z2)
inactive: nilotinib 0.018 | [1] -0.056 | dasatinib -0.079 | [2] 0.031 | [3] 0.031 | quisinostat 0.006 | tipifarnib 0.213 | [4] -0.097 | [6] 0.053 | [7] -0.119 | vorinostat -0.047 | silmitasertib -0.028 | [8] -0.117 | entospletinib 0.148

PHC2 isoform 5 (UniProt Q8IXK0)
inactive: nilotinib 0.095 | [1] 0.085 | [2] 0.461 | quisinostat 0.056 | tipifarnib -0.268 | [4] 0.029 | [7] -0.065 | [8] -0.024 | entospletinib 0.044

PIGW (UniProt Q7Z7B1)
inactive: nilotinib -0.076 | [1] 0.22 | dasatinib 0.034 | [2] 0.101 | [3] -0.029 | quisinostat -0.004 | tipifarnib -0.113 | [4] -0.003 | [7] -0.064 | [8] 0.001

PIWIL4 (UniProt Q7Z3Z4)
inactive: nilotinib 0.01 | [1] 0.005 | [2] -0.031 | tipifarnib 0.053

PLEKHA3 (UniProt Q9HB20)
inactive: nilotinib -0.084 | [1] -0.08 | dasatinib -0.176 | [2] 0.13 | [3] -0.066 | quisinostat -0.124 | tipifarnib 0.16 | [4] 0.05 | [8] 0.065

PLEKHA2 (UniProt Q9HB19)
inactive: nilotinib -0.03 | [1] 0.06 | dasatinib 0.033 | [2] -0.022 | [3] -0.017 | quisinostat -0.194 | tipifarnib -0.021 | [4] 0.004 | [6] -0.04 | vorinostat -0.184 | silmitasertib 0.07 | [8] -0.098

PHF8 (UniProt Q9UPP1)
inactive: nilotinib 0.165 | [1] -0.145 | [2] -0.005 | quisinostat -0.085 | tipifarnib 0.018 | [4] 0.037 | [6] 0.197 | [7] 0.103 | vorinostat 0.408 | silmitasertib -0.106 | [8] -0.004 | entospletinib 0.13

PIAS1 isoform 2 (UniProt O75925)
inactive: nilotinib -0.106 | [1] -0.103 | dasatinib 0.151 | [2] 0 | [3] -0.068 | quisinostat -0.023 | tipifarnib -0.183 | [4] -0.074 | [6] 0.06 | vorinostat -0.607 | silmitasertib 0.018 | [8] 0

PLD6 (UniProt Q8N2A8)
inactive: dasatinib 0.175 | [3] 0.054
